Amino acid sequences for entries named in this document (tags omitted). Residues count along the entry.
UniProt P26663, 2420-2989: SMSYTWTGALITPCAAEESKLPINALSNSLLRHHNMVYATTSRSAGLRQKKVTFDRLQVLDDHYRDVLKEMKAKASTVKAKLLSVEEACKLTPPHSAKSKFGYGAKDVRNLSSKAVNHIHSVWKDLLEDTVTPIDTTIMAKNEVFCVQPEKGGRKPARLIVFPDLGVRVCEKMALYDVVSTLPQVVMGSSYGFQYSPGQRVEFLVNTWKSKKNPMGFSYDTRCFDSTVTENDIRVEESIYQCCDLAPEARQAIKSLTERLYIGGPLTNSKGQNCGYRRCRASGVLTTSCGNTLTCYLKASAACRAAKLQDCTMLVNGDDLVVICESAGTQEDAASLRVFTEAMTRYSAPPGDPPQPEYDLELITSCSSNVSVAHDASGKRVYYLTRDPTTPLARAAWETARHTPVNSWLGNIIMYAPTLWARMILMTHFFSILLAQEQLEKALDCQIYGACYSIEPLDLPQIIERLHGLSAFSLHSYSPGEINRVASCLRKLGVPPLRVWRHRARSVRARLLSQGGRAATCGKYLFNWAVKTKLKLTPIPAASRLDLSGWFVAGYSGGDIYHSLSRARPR

According to patent US20110059043A1, “CHEMICAL COMPOUNDS” (priority 2009, published 2011):

Tests used:
[1] = molecular target: T1, Recombinant HCV polymerase (BK strain) (Hepatitis C virus genotype 1b, UniProt P26663); test: HCV polymerase enzyme assay (radiometric [33P]-UTP incorporation); assay type: biochemical, HCV 1b
T1 construct: Recombinant HCV polymerase (BK strain) was expressed and purified from E. coli with a 21 amino acid C-terminal deletion; His6; made in house; host or cells: E. coli
Description: Compounds were tested for inhibition of HCV polymerase using a radiometric [^33P]-UTP incorporation assay and a biotinylated U13:PolyA primer:template RNA substrate.
Recombinant HCV polymerase (BK strain) was expressed and purified from E. coli with a 21 amino acid C-terminal deletion and a His6-tag. The general assay buffer consisted of 20 mM Tris (pH 7.5), 25 mM KCl, 5 mM MgCl2, 3 mM DTT, 0.5 mg/ml BSA, 0.01% Tween20. The standard reaction, in 96 well plates, contained 10 μl of diluted compound, 50 μl of substrate and 40 μl of enzyme. Compounds, supplied as 10 mM stocks in DMSO, were diluted initially in neat DMSO, and subsequently buffer was added to give a DMSO concentration of 30%; 10 μl of this was added to the assay plate to give a final concentration in the 100 μl assay of 3% DMSO. The biotinylated U13:PolyA RNA substrate was pre-annealed with 40 μM 5′-biotinylated U13 (Dharmacon) and 213 μg/ml PolyA (Amersham Biosciences) in water incubated at 70° C. for 5 minutes before being cooled on ice. Substrate (50 μl) was added in buffer to give a final concentration in the 100 μl assay of 125 nM biotinylated U13:0.63 μg/ml PolyA and 200 nM UTP with 0.4 μCi [^33P]-UTP per well (Perkin Elmer). […] The plates were then washed three times with phosphate-buffered saline containing 0.05% Tween20 in an automated plate washer to remove unincorporated [^33P]-UTP, and then counted in a […]

[2] = system: HCV replicon cells Huh 9B; test: HCV replicon assay (luciferase); assay type: cell-based; settings: Hepatitis C virus, reduction of replicon level by 50% vs untreated cell control, 72 h
Description: (§1) HCV replicon cells Huh 9B (ReBlikon), containing the firefly luciferase—ubiquitin—neomycin phosphotransferase fusion protein and EMCV-IRES driven HCV polyprotein with cell culture adaptive mutations.
(§2) Cells were cultured at 37° C. in a 5% CO2 environment and split twice a week on seeding at 2×10^6 cells/flask on day 1 and 1×10^6 3 days later. G418 at 0.5 mg/ml was added to the culture medium but not the assay medium. The culture medium consisted of DMEM with […] glucose and glutamax (Gibco 61965-026) supplemented with 1×non-essential amino acids (Invitrogen 11140-035), penicillin (100 IU/ml)/streptomycin (100 μg/ml) (Invitrogen 15140-122), FCS (10%, 50 ml) and […] (Invitrogen 10131-027) & 10% Australian foetal calf serum (Invitrogen 10099-141).
A flask of cells was trypsinised and a cell count carried out. Cells were diluted to 100,000 cells/ml and 100 μl of this used to seed one opaque white 96-well plate (for the replicon assay) and one flat-bottomed clear plate (for the tox assay) for every five compounds to be tested for IC50. Wells G12 and H12 were left empty in the clear plate as the blank. […]
The M injector of the microplate luminometer (Lmax, Molecular Devices) was primed with 5×300 μl injections of the diluted substrate. […] The signal was measured using a 1 second delay followed by a 4 second measurement programme. […]

[3] = system: HCV replicon cells Huh 9B; assay type: cell-based; settings: concentration reducing total cell area by 50% relative to DMSO controls; 72 h
Description: as §1, §2
A flask of cells was trypsinised and a cell count carried out. […]
The clear plate was stained with 100 μl 0.5% methylene blue in 50% ethanol at room temperature for lh, followed by solvation of the absorbed methylene blue in 100 μl per well of 1% lauroylsarcosine. Absorbance of the plate was measured on a microplate spectrophotometer (Molecular Devices) and the absorbance for each concentration of compound expressed as a proportion of the relative DMSO control. […]

**Q.** COCCOc1ncc(F)cc1C(=O)NC1N=C(c2c(Cl)cc(Cl)cc2OC)c2ccccc2NC1=O (stereo not drawn) [Example 54, N-(5-(2,4-Dichloro-6-methoxyphenyl)-2-oxo-2,3-dihydro-1H-benzo[e][1,4]diazepin-3-yl)-5-fluoro-2-(2-methoxyethoxy)nicotinamide] was tested. Which IC50 [1] did it give?
**A.** 108 nM

**Q.** What about the IC50 [2] of the same molecule?
**A.** 18.4 nM

**Q.** What about the “Replicon Assay Value TD50” value [3] of the same molecule?
**A.** >25 µM
